At least one compound was matched to its structure with a doubt left.
Test system: bovine tubulin
Experiment: In vitro tubulin polymerization assay (CytoDYNAMIX Screen 03)
Assay type: biochemical
Settings: 3 mg/mL bovine tubulin, absorbance at 340 nm, relative to Vmax of DMSO controls; read-out: IC50 for inhibition of tubulin polymerization
Experimental: Compounds were assayed in vitro for effects on tubulin polymerization using a commercially available assay kit from Cytoskeleton (CytoDYNAMIX Screen 03).
Methods: Briefly, this assay is based on the observation that light scattered by microtubules is proportional to the concentration of microtubule polymer. The standard polymerization reaction contains 100 μL volume of tubulin solution consisting of 3 mg/mL bovine tubulin in 80 mM PIPES pH 6.9, 0.5 mM EGTA, 2 mM MgCl2, 1 mM GTP and 10% glycerol. The tubulin solution (100 μL/well) is added rapidly to wells of a 96-well plate containing duplicate aliquots (10 μL) of experimental compounds in DMSO to achieve a final well concentration of 1.0 and 10 μM in a preliminary screening assay. Control wells contain the same final concentration of DMSO (<0.5%). Following initiation of the polymerization reaction by incubation at 37° C., absorbance at 340 nm is measured every minute for 60 minutes using a SpectraMax plate reader. […] Inhibition of tubulin polymerization by experimental compounds is calculated relative to the Vmax of the DMSO controls. A more detailed description of assay conditions and assay optimization can be found in the Assay Kit Instructions. […]

Question: Which IC50 does the source give for `COc1ccc(C[C@@H](O)c2cc(OC)c(OC)c(OC)c2)cc1O` [combretastatin] here?
Answer: 1310 nM

— patent US7816390B2, “N-substituted tricyclic 3-aminopyrazoles as anti-mitotic tubulin polymerization inhibitors” (Janssen Pharmaceutica NV, priority 2008, dated 2010)
